Source: patent US20250223353A1
These are yes or no findings as the source states them, for the method shown. Binding can be weak; no strength is given.

Sequences of proteins named here, by UniProt entry; tags and fusion partners are left off. A change or cut given only in a name is not applied to a line headed by its entry.
UniProt Q6DKI7: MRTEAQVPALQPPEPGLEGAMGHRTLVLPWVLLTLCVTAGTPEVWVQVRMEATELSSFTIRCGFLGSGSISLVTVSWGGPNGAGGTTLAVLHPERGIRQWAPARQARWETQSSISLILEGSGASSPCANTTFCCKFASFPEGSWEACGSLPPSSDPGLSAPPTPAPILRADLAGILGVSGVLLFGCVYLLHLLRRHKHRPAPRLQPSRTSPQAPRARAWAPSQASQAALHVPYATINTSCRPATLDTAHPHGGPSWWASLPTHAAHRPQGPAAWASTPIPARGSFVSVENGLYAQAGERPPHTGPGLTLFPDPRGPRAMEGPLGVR

Target: human PVRIG on the cell surface (human) (UniProt Q6DKI7)
Assay: flow cytometry on CHO-huPVRIG cells

B1: ADI-56249-G1LALA (antibody, human IgG1, kappa, L234A L235A, V domains shown)
VH: QVQLVQSGAEVKKPGSSVKVSCKASGGTFSTFAISWVRQAPGQGLEWMGDIIPIFGSNYAQKFQGRVTITADESTSTAYMELSSLRSEDTAVYYCARGPLEGKVSPFDIWGQGTMVTVSS
VL: DIVMTQSPLSLPVTPGEPASISCRSSQSLLHSTGYNYLDWYLQKPGQSPQLLIYVGSTRASGVPDRFSGSGSGTDFTLKISRVEAEDVGVYYCMQERQFPITFGGGTKVEIKR
For B1, the binding was “binds”.
